According to the supplement of paper PMC3334620:
The full ranking holds about 33,000 sequences; the median of “E-score (-0.5 to 0.5)” is about -0.0034, and the highest 2% start at about 0.25. The list shows a part of the results.

target: T1, Yap3 (UniProt P38749); experiment: PBM E-score (8-mer binding enrichment) (E-score (-0.5 to 0.5)); higher = stronger / more preferred TF binding; conditions: protein concentration: 100 nM; construct: GST-full length
T1 sequence: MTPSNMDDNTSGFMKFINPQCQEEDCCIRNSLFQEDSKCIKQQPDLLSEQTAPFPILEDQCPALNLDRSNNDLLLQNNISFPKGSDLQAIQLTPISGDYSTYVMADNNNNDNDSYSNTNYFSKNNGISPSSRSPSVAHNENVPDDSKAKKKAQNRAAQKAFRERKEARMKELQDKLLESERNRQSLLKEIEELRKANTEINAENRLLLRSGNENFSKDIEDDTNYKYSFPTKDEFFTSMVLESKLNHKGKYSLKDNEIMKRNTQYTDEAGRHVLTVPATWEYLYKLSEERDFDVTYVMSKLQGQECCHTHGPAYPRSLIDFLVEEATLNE
In short: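 Universal all-10-mer Agilent arrays, double-stranded by primer extension on fresh or once-stripped slides, were probed with about 100-200 nM GST-tagged yeast transcription factors made by PURExpress. Fluorescent anti-GST detected bound protein, and masliner normalised the scans. E-scores from the Universal PBM Analysis Suite were given to each ungapped eight-base word pooled with its reverse complement.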

Sequence	PBM E-score
CCGAAGCC	-0.178
CAGGCTTC	0.0437
CAGTACAG	0.0469
GCCCAACA	-0.22
AATCCCCT	-0.187
AATTAGTC	0.303
ACAGTAGA	0.194
ATCCTAGA	0.0306
AGGGTACG	-0.0661
ATAGTCGG	-0.197
GGCGCGGA	-0.172
AGTGTGAC	0.0807
ACGTCCCC	-0.208
CAGTAGGG	-0.177
CGCGAGCC	-0.058
CCGGGGAA	-0.152
AATGGAAA	0.152
CGGCTCAC	0.0406
GCCGGTCC	-0.402
GCAGAGAA	0.0856
AGCGGTAC	0.142
AAAGGATA	0.172
ATTGAGAG	0.0887
ACTGGTCA	-0.0141
GATTATAA	0.244

Rewritten in CSV form: part of the list above
Sequence,PBM E-score
AATGGAAA,0.152
CGGCTCAC,0.0406
GCCGGTCC,-0.402

(next part)

Sequence	PBM E-score
AATCACAA	0.0514
AGTCCGAT	0.0837
GTCTCAAC	-0.0974
AAGGGCAT	-0.253
CTCACGCC	-0.0142
GTACAGAA	-0.00324
GGGAGACC	-0.443
GTGATGTA	0.194
AACCCGCC	-0.0463
ATATAGGG	-0.0709
GTCGCCCA	-0.306
CACACTGA	-0.0359
ACACGTAA	0.217
CTACTACC	-0.0382
TGCCTTAA	-0.076
GGTTAAAA	0.107
CGCTAACG	0.0265
GCAAGGCC	-0.115
TTCTCCAA	0.018
CCGAGCGC	0.00891
TAGTCTAA	0.0413
AATTGTTC	0.257
CCTAAACA	0.0799
ATATCCAA	0.178
CTGAGTCC	-0.18

In a second layout: entries from further up.
AATCACAA
  PBM E-score = 0.0514
CTACTACC
  PBM E-score = -0.0382

Remaining list, next part

Sequence	PBM E-score
AGCATGAC	-0.037
AGATGTGG	-0.00289
CTTGTCAC	-0.129
CGTGGGTA	-0.169
AAGACAAG	0.045
GAAAGGGC	-0.321
AATCGATC	0.156
GCAAGTAC	-0.118
CCAGCAAG	-0.241
GGAGGGGA	-0.122
GCCAACAA	-0.049
CACGGCCA	-0.154
CCTATGCC	-0.0946
TGCGGTAA	-0.0155
ACAAAACG	0.173
AATAGTGT	0.186
CGGTCACA	0.0249
GAGGTAGC	-0.194
AAGTCGTG	-0.0136
AGCAGACC	0.00631
CCTCTGTA	-0.0106
GACTAACA	0.142
ACCGGTCC	-0.296
AGCCTTAC	-0.163
CGTGCTGA	0.0619

Sequence	PBM E-score
TACCCCCA	-0.131
CAGCATCC	-0.0272
GATCCTGA	-0.0394
CCGAGGGC	-0.114
AACCTAGG	-0.123
AAACGACG	0.0166
GCCGGGAA	-0.209
CTTGAATC	-0.0309
CTGGAGGA	-0.236
CGGGGCAG	-0.169
CCGACGAG	-0.0276
CAAGATCC	0.027
CACCCAAG	-0.127
GAGAACTA	0.126
TCATAGCA	0.0921
AACCTAGA	0.0352
GAACCGCA	0.0221
ATGACTGA	0.0192
AAGCAACG	0.206
CGCATTCA	0.147
GTCTCTTA	0.0442
CTAGTGGA	-0.162
AATGCTAC	0.0564
ACGAAACT	-0.00832
AGAGGGCA	-0.192

Sequence	PBM E-score
GCGCCCAC	-0.0948
AAAGTGAG	0.202
ATAGCGAC	-0.0481
ACATGTCT	0.0711
ATATACGA	0.0617
ATTCGTCC	0.213
CGCAGCGC	-0.124
GGTCCTAC	-0.239
ATGATCAA	0.131
CCGAGCCG	0.0228
ATCAACCA	0.0491
CCGGTTAC	0.0259
AGCGCTGA	-0.0364
CATGGCAG	0.00112
ATTCTTGA	0.163
ATTGCCCG	-0.015
GCTGATCA	-0.0252
TATTGAAA	0.254
CGCGCCAA	-0.0259
TGAAGGAA	0.0749
ATATCACC	0.235
ACGGGTCG	0.0117
CCGCAACA	0.066
CGCATCAG	0.0688
CCGTTCTA	0.0674

Sequence	PBM E-score
ATGTAGCC	-0.126
ACATTGGA	-0.0349
ACGAAGCT	0.0423
AGAGCCGC	-0.0382
ATTTAATG	0.282
AAGTGCTG	0.043
AAAGGCTT	0.00142
GATTCTTA	0.201
AATGTTGA	0.0691
TGATAGAA	0.0457
TCTCCAAA	0.0406
ACTCATTC	0.16
GTATATTA	0.211
AGGTCTAC	-0.138
CGCTATCC	0.0718
CATCGAAG	0.0748
AATTCTGG	-0.00568
ATTCGTGC	0.104
CTGTCCTA	-0.139
AACAACCC	-0.00587
GATTCGTA	0.121
ACTAGTCG	-0.0486
CCCCTTAG	-0.24
ACTCTAAG	-0.0616
CGATTGCA	0.128

Sequence	PBM E-score
ATGCTATG	0.103
GCTGTTCC	-0.117
ATCAGGGA	-0.107
AAGTTGGC	-0.0678
CGTGTGAC	-0.0548
GCCATCCA	-0.19
GTCCGTAA	-0.0675
ATCTAGTA	0.157
CCGGAGAA	0.0465
CGAATAGA	-0.0249
CCTTGGCG	-0.385
ACCAGTTC	-0.103
CATAAGCG	0.0692
ACTTATTA	0.263
GCACTCGA	-0.0644
AGGAGTAA	0.133
CTTCCACC	-0.207
CCGGTACG	-0.288
GAGCTTAA	-0.0469
ATGGACCC	-0.0319
ATTATACG	0.244
AACCCTAC	-0.163
GGCATGCA	-0.0341
GTTTACAA	0.148
CTCATTAC	0.224

Retrieved one by one from the entries so far, 3 records:
Sequence	PBM E-score
AAGTCGTG	-0.0136
AGTCCGAT	0.0837
ACTGGTCA	-0.0141

Further results follow.

Sequence	PBM E-score
TCCGCCAA	-0.168
ACGGCCTC	-0.114
ACTTGCTG	-0.0566
GGCTCGTA	0.0879
ACATCTTG	-0.0704
AGATATTC	0.162
AATAAACG	0.193
CAGAGTGC	-0.0777
AGCCTCTA	-0.2
CCCACCCC	0.0709
CGAATGCA	0.0281
AACAGGGA	-0.0243
AGGCCAAG	-0.226
CATGTGTA	0.0375
AGGAGCAC	-0.0593
CAGCACCG	-0.178
AAGGGATC	-0.103
ATCCCGTA	0.122
CGGAGATA	0.0542
AGGAGCTA	-0.183
AGTCCAGA	-0.104
CGTCTCCA	0.0909
ATCGGGAC	-0.205
ACAAATAC	0.293
CTACCCTA	-0.0536

Sequence	PBM E-score
TACTACGA	0.143
TAACCCGA	-0.0757
CCAGACAA	-0.147
TAGGGTGA	0.106
TCCTCTAA	-0.00323
GGTCACAC	-0.263
ACGACTTA	-0.134
GACTGCAC	-0.119
CTGAAGAC	-0.101
CCGAGTAA	-0.0172
ACGAAATC	0.185
AGTCGAAC	0.0695
GAACATGC	-0.0813
ATCAGCAC	0.0374
AATTCAAT	0.11
CAATCGCC	0.108
AGCGATCG	0.193
CCCTCACC	-0.206
CGCAAATA	0.0715
GGGCGTCA	-0.044
GCCGCCAA	-0.144
GATTTCAC	0.0394
GCTTTAAA	0.0131
AAGAGGGG	-0.144
CCGCGTCG	-0.0382

Sequence	PBM E-score
ACGCAGGA	-0.0758
ATACATAT	0.286
AATGTAAG	0.307
GATAATAC	0.182
AGCGCTGC	-0.0724
ATAACATG	0.113
CAACACAA	0.19
ACCCAATA	-0.0657
AACCGGAA	0.146
CCGACGCA	-0.138
ACGCCCTG	-0.0413
CATGCGCA	0.0286
GCGCGGCC	-0.0647
AATGGGCT	-0.13
TGGGGTAA	0.0902
GGGGAACA	-0.09
CGCTTCAC	-0.0891
AGAGTAGG	0.0861
ACTCTTGC	0.00857
ATACCCGA	-0.0505
AGCAGAGG	-0.0701
ACGTTCTC	0.0645
CTCCCGCC	-0.102
GAATTGTC	-0.034
CGACCCAA	0.00464

Sequence	PBM E-score
ATCTGAGG	0.0592
TTATTCAA	0.0561
AGGGGCGA	-0.0939
CAGAGCGA	-0.0428
GTGGTTTA	0.14
GCGCGCCA	0.11
ACATCTAA	0.0483
CCTCGCAA	-0.0826
AACCCTCG	-0.117
GCATACGC	-0.134
ATGATAGG	0.0502
AGTCAAAT	0.148
AGGGTCCA	-0.282
AGCAGTAA	0.0681
CCCGTAAC	0.00568
TGAGGCAA	0.0933
AGGAAACG	0.157
ACGGTCAG	-0.149
ACTCTATG	-0.122
CTCCGGAG	-0.138
CAACAAAA	0.197
CACCCTTC	-0.13
TTACATAA	0.416
TCCGCGGA	-0.109
ACATTGAG	0.0744

Sequence	PBM E-score
GACTTAGA	-0.148
TCCAGAAA	0.101
CAGTTACG	0.0281
CTAAGTGA	0.0311
ATGCTATC	-0.044
ACTGTGAA	0.0362
ACTCGATC	0.0389
CACTTGCA	0.115
CAAGGCGA	-0.168
GGTGAGAA	0.0668
CAGATGAA	0.0998
AACAGCCG	-0.147
GACGACAC	0.0496
ACCGGCAA	-0.091
AGTTTACC	-0.0608
ACAGCATA	0.0839
CGGAGTGA	-0.0448
AGCCAGCG	-0.115
ACTCTCCT	-0.159
CCTAGGCC	-0.165
AGATTCAG	-0.112
CAAAGGGG	-0.055
GCCGACGC	-0.0231
CAAAGATC	-0.0566
AATGTCAG	0.0292

Sequence	PBM E-score
ACTCTCTA	0.0284
CAAACAAG	0.129
GCATCTCA	0.0566
ATGCATCA	0.227
AAACGCCC	-0.0565
CACAACTC	0.127
ATACAAGG	0.145
GCAGCGCA	-0.294
CTTTATCA	0.126
CGCTACAC	-0.0665
AGCTCACG	-0.0323
ACAAAGCA	0.175
ACTTAACA	-0.0143
ATCGTAAT	0.242
AGCTAATG	0.00146
CCATTCAA	-0.059
CGAGACAA	0.0269
ATACCTGC	-0.105
AGGGACGG	-0.278
AATGTGTA	0.116
GGAGACAC	0.0787
CACTATAC	0.0594
CAGAAGCC	-0.163
TATCGCAA	0.0834
GAGTGAAC	-0.0276

Sequence	PBM E-score
CGCCGCGC	0.0129
CCTTGTTC	0.00595
CACCCAGA	-0.0341
ATAGTGAC	0.0267
CATTGGCG	-0.203
ACCCAGCA	-0.112
ATCATCTA	0.0308
ATCCTAAT	0.0634
ATTCTAGG	-0.0152
CTACAGAC	-0.185
AGGAACAG	-0.0271
GCAGCGAA	-0.0852
GATGTGCA	-0.0409
ATGTTTTC	0.172
ATCAAATA	0.241
ATGACGTA	0.277
ATGGTTGC	-0.112
CAAGAACG	0.0695
CACCAGCG	-0.138
